Results as given in PubChem BioAssay AID485314 (National Center for Advancing Translational Sciences (NCATS), 2010).
Several values for one entry are separate records, joined by “and”; a condition that tells them apart may be missing. Identical values can stand only once. In all, about 340,000 compounds went through this assay and about 4,500 (1.3%) were called active. Inconclusive results, whose numbers are uncertain, are shown with a selection of clear calls. Calls come from the whole dose curve; as a rule, active = well fitted inhibition curve with a large enough effect; inconclusive = small, poorly fitted or top-dose-only effect, or another doubt; inactive = no such curve, though single readings can be large or run the other way. A potency beside an inconclusive call is a rough fit, not a confirmed value.

target: DNA polymerase beta (Homo sapiens) (UniProt P06746); test: qHTS Assay for Inhibitors of DNA Polymerase Beta; details: Pol beta primer extension/strand displacement, fluorescence kinetic; activity change, negative = inhibition: at 114 µM (top of the series)
Outline: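 Preincubation: enzyme (10 nM) with compound, 15 min, RT. Reaction: substrate added to 50 nM final. Reads: 0 and 10 min. Analysis: normalized, Hill fit.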
% is set by controls: 0 for no effect and ±100 for the full control effect; potency is the fitted concentration of half-maximal effect.

SMILES	Potency	activity change, negative = inhibition
CNC(=O)c1sc(-c2cccnc2)nc1C	inactive	–
O=C(COc1ccc(F)cc1)NCCc1nc2ccccc2[nH]1	inactive	–
COc1ccc(NC(=O)C(=O)Nc2cccc3cccnc23)cc1OC	inconclusive: 20 µM [inhibitor, partial curve]	–
Cc1cc2c(cc3c(SCC(=O)Nc4cccc(Cl)c4C)nnc(C)n32)o1	inactive	–
O=C(NCc1ccccc1)c1ccc2c(=O)n(CCCN3CCCC3=O)c(=S)[nH]c2c1	inactive	–
Cc1ccc(S(=O)(=O)Cc2ccc(C(=O)NCc3ccc4c(c3)OCO4)o2)cc1	active: 5.62 µM	–
COc1ccc2c(c1)[nH]c1c(=O)n(Cc3ccco3)cnc12	inconclusive: 8.91 µM [inhibitor, full curve, poor fit]	–
COCCNC(=O)Cn1cc(/C=N/NC(=O)c2ccc(Oc3ccc(O)cc3)cc2)c2ccccc21	inactive	–
CC(C)CCOc1ccccc1Cn1c(=O)sc2ccccc21	inconclusive: 28.2 µM [inhibitor, single point]	–
CCOC(=O)c1cc(-c2ccccc2)n(CCC(=O)Nc2nc3c(C)cccc3s2)c1C	inactive	–
Cc1ccc2oc(-c3cccc(NC(=S)NC(=O)c4cccs4)c3)nc2c1	inactive	–
Cc1ccc(CN(Cc2cccn2-c2nnc(N3CCCC3=O)s2)C(=O)Nc2ccc(F)cc2)cc1	inactive	–
CCCCNC(=O)c1sc(=S)n2c1[nH]c(=O)c1ccccc12	inconclusive: 50.1 µM [inhibitor, partial curve]	–
Cc1oc(-c2ccccc2Cl)nc1CS(=O)CC(=O)NCc1ccccc1Cl (stereo not drawn)	inconclusive: 70.8 µM [inhibitor, single point]	–
CCOC(=O)c1ccc(N2CC(O)=C(c3nc4ccccc4c(=O)[nH]3)C2=N)cc1	inconclusive: 89.1 µM [inhibitor, single point]	–
O=S(=O)(N/N=C\c1ccc2c(c1)OCO2)c1ccccc1	inconclusive: 89.1 µM [inhibitor, single point]	–
O=C(O)Cc1ccc2c(c1)N(S(=O)(=O)c1cccc(C(F)(F)F)c1)CC(C(=O)O)O2 (stereo not drawn)	inconclusive: 0.282 µM [inhibitor, full curve]	–
Cc1ccccc1Cn1nc(C)c(NC(=O)c2cc(CC(C)C)on2)c1C	inconclusive: 0.158 µM [inhibitor, full curve, poor fit]	–
O=C(CSc1nnc2c(n1)[nH]c1ccc(F)cc12)NCc1ccc(F)cc1	inconclusive: 12.6 µM [inhibitor, partial curve, poor fit]	–
O=C(COc1ccc([N+](=O)[O-])cc1)Nc1nnc(-c2cccnc2)s1	active: 15.8 µM	–
COc1ccccc1CNC(=O)C1CCN(S(=O)(=O)c2ccc3[nH]c(=O)ccc3c2)CC1	inconclusive: 89.1 µM [inhibitor, single point]	–
CCOC(=O)C(=O)NCc1ccc(/C=C2/N=C(C)C(C(=O)OCC)=C2O)o1	inconclusive: 89.1 µM [inhibitor, single point]	–

SMILES	Potency	activity change, negative = inhibition
O=C(O)CCc1ccc(-c2ccc(Br)cc2)n1-c1cccc(O)c1	inconclusive: 31.6 µM [inhibitor, single point]	–
CC(=O)n1nc(-c2ccccc2)nc1NCc1cccs1	inconclusive: 22.4 µM [inhibitor, partial curve, poor fit]	–
Cc1ccc(NC(=O)C2CCN(S(=O)(=O)c3ccc4c(c3)CCCN4C(=O)C3CCC3)CC2)cc1	inactive	–
Nn1c(-c2ccc(O)cc2)nnc1-c1ccc(O)cc1	–	inconclusive: -30.3% [inhibitor]
COc1ccccc1NC(=O)N1CCN(c2cccc(C(F)(F)F)c2)CC1	inconclusive: 79.4 µM [inhibitor, single point]	–
CCc1c(C)sc(NC(=O)c2cnn3cccnc23)c1C#N	inconclusive: 39.8 µM [inhibitor, single point]	–
COc1ccccc1N1CCN(C(=O)c2ccc3nc(-c4ccco4)c(-c4ccco4)nc3c2)CC1	active: 28.2 µM	–
Cc1ccc(Cl)cc1NC(=O)C1CCN(C(=O)c2cnn(-c3ccccc3)c2-n2cccc2)CC1	inactive	–
Cc1noc(C)c1C(=O)Nc1nc(-c2ccc([N+](=O)[O-])cc2)cs1	inconclusive: 5.01 µM [inhibitor, full curve, poor fit]	–
COc1cccc(NC(=O)Cn2nnc(C(=O)NCCc3ccccc3)c2N)c1	inconclusive: 15.8 µM [inhibitor, full curve] and inconclusive: 70.8 µM [inhibitor, partial curve, poor fit]	–
O=C(N/N=C/c1cc([N+](=O)[O-])ccc1O)c1ccc(COc2ccc3c(c2)CCC3)o1	inactive	–
COc1cc(OC)c2ccc(=O)oc2c1C(CC(=O)N1CCCC1)c1ccc2c(c1)OCO2 (stereo not drawn)	active: 44.7 µM	–
CCOC(=O)c1noc2nc(C)n(CC(=O)Nc3ccc(OC)c(Cl)c3)c(=O)c12	active: 20 µM	–
Cc1ccc(CC(=O)Nc2c(C(=O)N3CCN(c4ccccc4)CC3)oc3ccccc23)cc1	inactive	–
O=C(Nc1cc(S(=O)(=O)N2CCCCC2)ccc1Cl)c1ccccc1NS(=O)(=O)c1ccc(F)cc1	inconclusive: 63.1 µM [inhibitor, partial curve, poor fit]	–
CC(C)Oc1ccc(Br)cc1/C=N\NC(N)=S	inconclusive: 100 µM [inhibitor, single point]	–
CCN(CC)c1ccc(NS(=O)(=O)c2ccc(-c3coc(C)n3)cc2)c(C)c1	inconclusive: 39.8 µM [inhibitor, partial curve, poor fit]	–
Cc1cc2cc(CNC(=O)NC3CCCCC3)ccc2n1C	inconclusive: 79.4 µM [inhibitor, single point]	–
Cc1ccc(C)c(N(CC(=O)NN=C2CCN(C)CC2)S(=O)(=O)c2ccccc2)c1	inconclusive: 1.41 µM [inhibitor, full curve, poor fit]	–
CC(=O)N1CCc2c(sc3c2c(=O)n(-c2cccc(Cl)c2)c(=O)n3Cc2ccc(F)cc2Cl)C1	inconclusive: 89.1 µM [inhibitor, single point]	–
Cc1ccc(C2C(C#N)=C(N)N(c3cccnc3)C3=C2C(=O)CCC3)s1 (stereo not drawn)	inconclusive: 39.8 µM [inhibitor, single point]	–
COc1ccccc1C(c1nnnn1CC1CCCO1)N1CCN(c2ccccc2)CC1 (stereo not drawn)	inconclusive: 0.562 µM [inhibitor, partial curve, poor fit]	–
O=C1CCCN1CCCNc1ncnc2c1[nH]c1ccc(Cl)cc12	inconclusive: 39.8 µM [inhibitor, partial curve, poor fit]	–

SMILES	Potency	activity change, negative = inhibition
CCOC(=O)/C=C1\SCC(=O)N1CC(=O)c1ccc[nH]1	active: 20 µM	–
C/C(=N\Nc1nc(-c2ccc(C)cc2C)cs1)c1cc2ccccc2oc1=O	active: 22.4 µM	–
Cc1ccccc1C(=O)NCCSc1ccccc1	inactive	–
Oc1ccccc1C1NN=C(c2ccccc2)S1 (stereo not drawn)	inconclusive: 22.4 µM [inhibitor, partial curve]	–
S=c1[nH]nc(C2CCCCC2)o1	inconclusive: 0.1 µM [inhibitor, full curve, poor fit]	–
Cc1cccc2cc(C#N)c(NCCCNS(=O)(=O)c3ccc(Cl)cc3)nc12	–	inconclusive: -37.6% [inhibitor]
COc1ccc(-n2c(C)cc(/C=C3\C(=N)N4N=C(CC(=O)N5CCOCC5)SC4=NC3=O)c2C)cc1	active: 0.891 µM	–
CCSCCOC(=O)C1=C(C)NC(=O)NC1c1ccccc1 (stereo not drawn)	inconclusive: 25.1 µM [inhibitor, partial curve]	–
CC(=O)/C(=N\Nc1ccccc1Cl)Sc1nnc(-c2ccccc2)n1-c1ccccc1	inconclusive: 14.1 µM [inhibitor, partial curve]	–
COC(=O)c1ccc(C(=O)Nc2ccc(-c3nc4cc(NC(=O)c5ccc(C(=O)OC)cc5)ccc4o3)cc2)cc1	–	inconclusive: -41% [inhibitor]
CC(=O)Nc1cccc(NC(=O)CCNC(=O)c2ccc(Cl)cc2)c1	inconclusive: 63.1 µM [inhibitor, single point]	–
COc1cc(/C=C2\SC(=S)N(N(C)c3ccccc3)C2=O)ccc1O	inconclusive: 79.4 µM [inhibitor, single point]	–
Cc1ccc(-c2nnc(N3CCN(c4ccccn4)CC3)c3ccccc23)cc1	inconclusive: 79.4 µM [inhibitor, single point]	–
O=C1c2ccccc2C(=O)N1/N=C/c1ccc(O)c(O)c1O	–	inconclusive: -97.1% [inhibitor]
O=C1c2ccccc2C(=O)N1c1ccc(Br)c2cccnc12	inactive	–
S=C(NCCCN1CCOCC1)Nc1ccc(-c2nc3ccccc3[nH]2)cc1	inconclusive: 89.1 µM [inhibitor, single point]	–
COc1ccc(Cn2ccc3nc(C)c(C(=O)NCc4ccc(C)cc4)cc3c2=O)cc1	inconclusive: 35.5 µM [inhibitor, full curve]	–
Cc1nc(SCc2ccc([N+](=O)[O-])cc2)nc2ccccc12	inconclusive: 100 µM [inhibitor, single point]	–
CC(NC(=O)COC(=O)c1ccc([N+](=O)[O-])s1)c1ccccc1 (stereo not drawn)	active: 15.8 µM	–
CCOc1cc(/C=N/Nc2cccc(C(=O)O)c2)ccc1OC(=O)c1ccccc1	inconclusive: 44.7 µM [inhibitor, partial curve]	–
C/C(=N\Nc1ccc(C(=O)O)cc1)c1ccc(Cl)s1	inactive	–
Cc1ccc2cc3c(N)[nH]nc3nc2c1	inconclusive: 100 µM [inhibitor, single point]	–
